Assay results published in publication PMC11996864, “A small-molecule inhibitor of BCL10-MALT1 interaction abrogates progression of diffuse large B cell lymphoma” (The Journal of Clinical Investigation, 2025).
No constants are given. Whether binding was seen depends on the method and setting. For some of these results: Binding seen in cells or lysates may run through a third protein. Some entries that bind do so weakly or less than the wild type. For some of these results: Tags and fused reporters may be left off the sequences shown.

Protein sequences, listed by entry. Tags and fused reporters are not part of them.
UniProt P15172: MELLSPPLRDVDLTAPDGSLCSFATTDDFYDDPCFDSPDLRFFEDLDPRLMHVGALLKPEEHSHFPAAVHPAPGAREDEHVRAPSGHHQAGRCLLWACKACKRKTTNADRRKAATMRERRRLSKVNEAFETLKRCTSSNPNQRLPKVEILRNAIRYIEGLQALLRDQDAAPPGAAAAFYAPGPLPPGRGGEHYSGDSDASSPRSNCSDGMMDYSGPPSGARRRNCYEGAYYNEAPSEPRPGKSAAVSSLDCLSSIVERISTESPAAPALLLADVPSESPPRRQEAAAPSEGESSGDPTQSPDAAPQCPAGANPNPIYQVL
UniProt Q7Z434: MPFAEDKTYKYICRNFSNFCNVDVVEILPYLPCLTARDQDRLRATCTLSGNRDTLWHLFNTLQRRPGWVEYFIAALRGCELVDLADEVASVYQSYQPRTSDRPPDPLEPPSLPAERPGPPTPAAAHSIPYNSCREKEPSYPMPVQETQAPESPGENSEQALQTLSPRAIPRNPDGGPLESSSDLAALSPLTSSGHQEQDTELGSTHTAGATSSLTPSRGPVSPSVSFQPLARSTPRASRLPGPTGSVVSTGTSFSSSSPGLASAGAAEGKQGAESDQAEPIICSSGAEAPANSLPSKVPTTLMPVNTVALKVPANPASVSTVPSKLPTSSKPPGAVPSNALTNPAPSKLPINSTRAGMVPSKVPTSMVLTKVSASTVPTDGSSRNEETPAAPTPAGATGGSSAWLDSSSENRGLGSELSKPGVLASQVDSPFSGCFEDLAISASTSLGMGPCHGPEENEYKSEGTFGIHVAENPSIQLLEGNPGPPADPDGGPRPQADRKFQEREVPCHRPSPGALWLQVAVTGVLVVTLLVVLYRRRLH
UniProt O43353: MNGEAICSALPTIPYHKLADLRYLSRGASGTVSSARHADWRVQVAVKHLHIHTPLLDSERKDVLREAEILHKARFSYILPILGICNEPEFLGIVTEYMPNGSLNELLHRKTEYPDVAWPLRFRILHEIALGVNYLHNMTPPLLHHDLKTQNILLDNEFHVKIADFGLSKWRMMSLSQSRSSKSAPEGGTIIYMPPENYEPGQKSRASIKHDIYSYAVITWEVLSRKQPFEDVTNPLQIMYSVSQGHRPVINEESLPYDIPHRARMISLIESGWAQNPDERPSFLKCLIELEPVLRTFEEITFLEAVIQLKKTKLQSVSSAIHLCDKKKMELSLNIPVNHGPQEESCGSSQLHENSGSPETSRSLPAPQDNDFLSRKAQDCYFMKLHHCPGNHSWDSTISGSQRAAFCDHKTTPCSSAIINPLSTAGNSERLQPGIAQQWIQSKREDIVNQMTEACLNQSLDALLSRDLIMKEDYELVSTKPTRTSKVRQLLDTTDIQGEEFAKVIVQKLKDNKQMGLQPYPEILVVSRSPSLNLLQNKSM

Key:
MyoD = MyoD (UniProt P15172); test: ELISA; same ELISA-based platform; MyoD immobilised, Id1 in solution; with M1i-124 or M1i-124d1
BCL10 E53R mutant [1] = molecular target: T1, BCL10 E53R mutant (UniProt O95999); test: co-IP; BCL10-/- cells reconstituted with the E53R mutant of BCL10; MALT1(Ig1-2) (Supplemental Figure 1D)
T1 sequence: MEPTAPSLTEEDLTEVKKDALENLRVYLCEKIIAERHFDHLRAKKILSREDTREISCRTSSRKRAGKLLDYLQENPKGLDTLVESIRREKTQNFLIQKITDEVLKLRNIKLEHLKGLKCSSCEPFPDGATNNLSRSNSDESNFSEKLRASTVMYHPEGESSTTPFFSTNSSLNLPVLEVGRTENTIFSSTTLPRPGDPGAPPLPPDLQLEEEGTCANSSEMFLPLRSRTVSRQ

Myc-tagged BCL10 [2] = molecular target: T2, Myc-tagged BCL10 (UniProt O95999); test: co-IP; HA-tagged MALT1 proteins or fragments with Myc-tagged BCL10 (or Myc-tagged RICK, MAVS), expressed in transiently transfected 293T cells
T2 sequence: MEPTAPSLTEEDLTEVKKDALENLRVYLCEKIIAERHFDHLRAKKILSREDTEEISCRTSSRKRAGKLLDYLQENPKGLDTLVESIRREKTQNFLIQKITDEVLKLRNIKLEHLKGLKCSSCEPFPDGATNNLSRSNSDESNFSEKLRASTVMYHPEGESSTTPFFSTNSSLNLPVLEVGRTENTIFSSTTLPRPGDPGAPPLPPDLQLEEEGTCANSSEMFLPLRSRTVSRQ

Myc-tagged MAVS = Myc-tagged MAVS (UniProt Q7Z434); test: as above
Myc-tagged RICK = Myc-tagged RICK (UniProt O43353); test: as above
Myc-tagged BCL10 [3] = molecular target: T2, Myc-tagged BCL10; test: co-IP; self-association of BCL10 (WT or E53R) in the authors' co-IP system (Supplemental Figure 1C)
BCL10 E53R mutant [4] = molecular target: T1, BCL10 E53R mutant; test: as above

B1: inhibitor of DNA binding 1 (protein, UniProt P41134 1-155)
chain: MKVASGSTATAAAGPSCALKAGKTASGAGEVVRCLSEQSVAISRCAGGAGARLPALLDEQQVNVLLYDMNGCYSRLKELVPTLPQNRKVSKVEILQHVIDYIRDLQLELNSESEVGTPGGRGLPVRAPLSTLNGEISALTAEAACVPADDRILCR
binding (MyoD): binds

B2: HA-tagged MALT1(Ig1-2) (domain or fragment, UniProt Q9UDY8 128-308)
chain: KITVNPESKAVLAGQFVKLCCRATGHPFVQYQWFKMNKEIPNGNTSELIFNAVHVKDAGFYVCRVNNNFTFEFSQWSQLDVCDIPESFQRSVDGVSESKLQICVEPTSQKLMPGSTLVLQCVAVGSPIPHYQWFKNELPLTHETKKLYMVPYVDLEHQGTYWCHVYNDRDSQDSKKVEIII
binding (BCL10 E53R mutant [1]): binds | binding (Myc-tagged BCL10 [2]): binds | binding (Myc-tagged MAVS): no binding | binding (Myc-tagged RICK): no binding

B3: Myc-tagged BCL10 (protein, UniProt O95999 1-233)
chain: MEPTAPSLTEEDLTEVKKDALENLRVYLCEKIIAERHFDHLRAKKILSREDTEEISCRTSSRKRAGKLLDYLQENPKGLDTLVESIRREKTQNFLIQKITDEVLKLRNIKLEHLKGLKCSSCEPFPDGATNNLSRSNSDESNFSEKLRASTVMYHPEGESSTTPFFSTNSSLNLPVLEVGRTENTIFSSTTLPRPGDPGAPPLPPDLQLEEEGTCANSSEMFLPLRSRTVSRQ
binding (Myc-tagged BCL10 [3]): binds

B4: BCL10 E53R mutant (protein, UniProt O95999 1-233)
chain: MEPTAPSLTEEDLTEVKKDALENLRVYLCEKIIAERHFDHLRAKKILSREDTREISCRTSSRKRAGKLLDYLQENPKGLDTLVESIRREKTQNFLIQKITDEVLKLRNIKLEHLKGLKCSSCEPFPDGATNNLSRSNSDESNFSEKLRASTVMYHPEGESSTTPFFSTNSSLNLPVLEVGRTENTIFSSTTLPRPGDPGAPPLPPDLQLEEEGTCANSSEMFLPLRSRTVSRQ
binding (BCL10 E53R mutant [4]): no binding
